Data on 53 compounds can be found in PubChem BioAssay AID1487 (National Center for Advancing Translational Sciences (NCATS), 2009).

One may read the AC50 as the concentration giving half of the maximal activity seen.

This assay in a line: qHTS Assay for Modulators of Lamin A Splicing. Particulars: HeLa LMNA splicing GFP/RFP minigene ratio, 48 h. In short, it runs like this:
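S3 HeLa cells stably expressing lamin A-EGFP splicing minigene plus DsRed2, 600 cells/well, 48 h compound exposure at 37C. Laser-scanning cytometry; analysed as GFP (500-530 nm)/RFP (575-640 nm) total intensity ratio; 0.5% DMSO vehicle.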
On the technique in general: qHTS replaces the single test concentration by a dilution series.

Where [1] appears, read: measured here: GFP splicing reporter channel.
Where [2] appears, read: measured here: RFP viability control channel.

Molecules are shown by their SMILES. Where “and” joins values, the source holds several entries; their conditions need not be identical. Equal values may be shown once. The list shows a part of the results. These are further read-outs of the screen, such as a control signal, another cell line or another target. No call is given for them. Most of these compounds were active or inconclusive in the main read-out, so they are no random draw. The note in brackets gives the kind of curve behind each potency; many fits are weak.

Take `Cc1cccc(N2CCN(C(=O)c3ccc4nc[nH]c4c3)CC2)c1C`: the AC50 by setting is: under setting [1], 10 µM [rising, single point]; under setting [2], 17.8 µM [rising, single point].

`CCOC(=O)c1cnn(-c2nc3sc4c(c3c(=O)[nH]2)CCCC4)c1N`: the AC50 under setting [2] was 1.26 µM [rising, full curve].

On to `CCCCCNC(=O)C1CCC(Cn2c(=O)c3sccc3n(CC(=O)N3CCCC3)c2=O)CC1` (stereo not drawn), for which the AC50 under setting [2] was 0.00316 µM [falling, full curve, poor fit].

`O=c1c2ccc([N+](=O)[O-])cc2ncn1CCOc1ccc(Cl)cc1`: the AC50 runs as follows: under setting [1], 0.501 µM [rising, full curve]; under setting [2], 0.0891 µM [rising, full curve, poor fit].

Regarding `CCCCOC(=O)Nc1ccccc1C(=O)N1CCCC1`, under setting [1], the AC50 was 35.5 µM [rising, single point].

On to `COCCn1c(SCC(=O)Nc2ccc(Cl)c(S(=O)(=O)N(C)C)c2)nc2ccccc21`, for which the AC50 under setting [2] is 11.2 µM [rising, single point].

Turning to `Cc1ccc(NC(=O)CSc2nnc(C3CCCCC3)n2N)cc1F`, the AC50 was 17.8 µM [rising, single point] under setting [1] and 17.8 µM [rising, single point] under setting [2].

For the compound `O=C(Nc1ccccc1)OC[C@H](CN1CCCCC1)OC(=O)Nc1ccccc1`, the AC50 under setting [1] was 12.6 µM [rising, single point] and the AC50 under setting [2] was 5.62 µM [rising, partial curve, poor fit].

In the case of `Cc1ccc(NC(=O)c2cccc(OCc3c(C)noc3C)c2)cc1S(=O)(=O)Nc1ccccc1Cl`, the half-maximal activity concentration (AC50) was 12.6 µM [rising, partial curve, poor fit] under setting [1] and 20 µM [rising, partial curve] under setting [2].

On to `CC(C)Oc1ccc(C(CC(=O)O)c2ccc(F)cc2)cc1` (stereo not drawn), for which the AC50 under setting [1] is 0.0224 µM [rising, full curve, poor fit].

As for `CC(C)CCn1nc(C(=O)Nc2nc3c(s2)CCCC3)c2ccccc2c1=O`, the AC50 under setting [2] is 14.1 µM [rising, single point].

For `Cc1ccc(S(=O)(=O)N2CCC(=O)N(C(COCc3ccc(C(F)(F)F)cc3)C(C)C)CC2)cc1` (stereo not drawn), the concentration at half-maximal activity (AC50) is, setting by setting: under setting [1], 31.6 µM [rising, single point]; under setting [2], 35.5 µM [rising, partial curve, poor fit].

As for `O=C(Nc1nccs1)c1ccc(COc2ccccc2Br)o1`, the AC50 under setting [2] is 28.2 µM [rising, single point].

As to `O=C(CSc1n[nH]c(-c2ccccc2)n1)c1ccc(O)c(O)c1`, the AC50 runs as follows: under setting [1], 11.2 µM [rising, single point]; under setting [2], 25.1 µM [rising, single point].

For `COc1ccc(C2=NN(C(=O)CSc3nnc(-c4ccccc4F)o3)C(c3ccco3)C2)cc1` (stereo not drawn), the AC50 under setting [2] is 14.1 µM [rising, single point].

Turning to `Cc1ccc2ncnc(NCCCCCC(=O)O)c2c1`, the AC50 under setting [2] is 0.0224 µM [falling, full curve].

As for `O=C(C1CCCN(S(=O)(=O)c2ccccc2)C1)N1CCN(c2ncccn2)CC1` (stereo not drawn), the concentration at half-maximal activity (AC50) under setting [2] is 35.5 µM [rising, single point].

For the compound `Cc1ccc(C(=O)N/N=c2\sc3ccccc3n2C)cc1`, the concentration at half-maximal activity (AC50) runs as follows: under setting [1], 0.0355 µM [rising, full curve, poor fit]; under setting [2], 0.0708 µM [rising, partial curve].

`O=C(CCC1N=C2c3ccccc3N=C(SCc3ccc(F)cc3)N2C1=O)NCCc1ccccc1` (stereo not drawn): the AC50 under setting [1] was 12.6 µM [falling, partial curve] and the AC50 under setting [2] was 11.2 µM [falling, partial curve].

`CCOC(=O)C1CCN(c2cc(C)nc3ccc(OC)cc23)CC1`: the AC50 under setting [1] is 10 µM [rising, partial curve, poor fit].

Regarding `Cc1ccc(NC(=O)CC2SC(=NCC3CCCO3)NC2=O)cc1Cl` (stereo not drawn), the AC50 under setting [2] is 0.398 µM [rising, full curve].

With `CN(Cc1c(F)cccc1Cl)c1ccc(S(=O)(=O)N2CCOCC2)cn1`, the AC50 was 7.08 µM [rising, partial curve] under setting [1] and 7.08 µM [rising, partial curve] under setting [2].

For `COc1cccc(OC)c1OCCNCC1COc2ccccc2O1` (stereo not drawn), the AC50 is 5.62 µM [falling, partial curve, poor fit] under setting [1] and 5.62 µM [falling, single point] under setting [2].

As for `CCOc1ccc2ccccc2c1CNc1nnnn1C`, the AC50 under setting [2] is 12.6 µM [falling, partial curve].

In the case of `Cc1ccc(S(=O)(=O)Nc2ccc(N3CCOCC3)cc2)cc1[N+](=O)[O-]`, the AC50 was 0.00316 µM [falling, full curve, poor fit] under setting [1] and 2.51 µM [falling, partial curve, poor fit] under setting [2].

For `O=C1NCN(c2ccccc2)C12CCN(CCCC(c1ccc(F)cc1)c1ccc(F)cc1)CC2`, the AC50 was 1.12 µM [falling, partial curve] and 20 µM [falling, partial curve] under setting [1]; 1 µM [falling, partial curve] and 25.1 µM [falling, partial curve] under setting [2].

For the compound `C=CC(=O)Nc1ccc(Br)cc1`, under setting [2], the AC50 was 11.2 µM [rising, single point].

In the case of `COc1ccc(OC(C)C(=O)Nc2ccc([N+](=O)[O-])cc2)cc1` (stereo not drawn), the AC50 under setting [1] was 1.78 µM [rising, partial curve] and the AC50 under setting [2] was 1.58 µM [rising, single point].

In the case of `Oc1ccc2ccccc2c1N=Nc1ccccn1`, the AC50 was 2.82 µM [rising, full curve, poor fit] under setting [1] and 17.8 µM [rising, partial curve] under setting [2].

For the compound `Cn1c(SCC(=O)N2CCCC2)nc2ccccc21`, the concentration at half-maximal activity (AC50) by setting is: under setting [1], 0.00316 µM [falling, full curve, poor fit]; under setting [2], 3.16 µM [falling, partial curve, poor fit].

As for `O=C(COc1ccc(Cl)cc1)N1CCN(C(=O)c2cccs2)CC1`, the concentration at half-maximal activity (AC50) under setting [1] is 0.00631 µM [rising, full curve, poor fit].

As for `CCOc1ccc(-c2nc(N)ncc2-c2ccccc2)c(O)c1`, under setting [2], the AC50 is 15.8 µM [rising, single point].

On to `COc1ccc(OC)c(NC(=O)CSc2ccc3ccccc3c2)c1`, for which the AC50 was 14.1 µM [rising, single point] under setting [1] and 17.8 µM [rising, single point] under setting [2].

`O=C(NCc1cccnc1)c1ccc(NC(=O)c2cccc([N+](=O)[O-])c2)cc1`: under setting [1], the AC50 is 5.62 µM [rising, single point].

With `Cc1cc2c(c(SCC(=O)Nc3ccc(C)c(C)c3)n1)C(=O)OC2`, the AC50 under setting [2] is 7.94 µM [falling, partial curve].

As for `COc1cccc(/C=N/NC(=O)CNC(=O)C2COc3ccccc3O2)c1O` (stereo not drawn), under setting [2], the half-maximal activity concentration (AC50) is 31.6 µM [rising, single point].

For `COc1ccc2ncc(S(=O)(=O)c3ccccc3)c(N3CCN(c4ccccc4)CC3)c2c1`, the AC50 under setting [1] was 31.6 µM [rising, single point].

In the case of `CC(C)(C)NS(=O)(=O)c1ccc(Oc2ncc(C(F)(F)F)cc2Cl)cc1`, the AC50 under setting [2] was 15.8 µM [rising, single point].

Take `N#Cc1cccc(-c2nc(NCCN3CCOCC3)c3ccccc3n2)c1`: the AC50 under setting [1] is 10 µM [falling, partial curve, poor fit].

As for `CSc1nnc2c3ccccc3n(CCc3ccccc3)c2n1`, the AC50 under setting [1] was 3.55 µM [rising, full curve, poor fit] and the concentration at half-maximal activity (AC50) under setting [2] was 2.82 µM [rising, full curve].

Regarding `O=C(NN1CCCCC1)c1cccc2ccccc12`, the half-maximal activity concentration (AC50) by setting is: under setting [1], 35.5 µM [falling, partial curve, poor fit]; under setting [2], 0.398 µM [falling, partial curve].

`O=C(c1cccs1)N1CCN(c2nnc(-c3ccccc3)c3ccccc23)CC1`: the AC50 under setting [2] was 10 µM [falling, single point].

With `O=S1(=O)CC/C(=N\Nc2ccccc2)c2ccsc21`, the AC50 is, setting by setting: under setting [1], 10 µM [rising, single point]; under setting [2], 3.55 µM [rising, single point].

As to `CC(=O)C1=C(C)NC(SCC(=O)c2ccc(-c3ccccc3)cc2)=C(C#N)C1c1cccnc1` (stereo not drawn), the AC50 was 14.1 µM [falling, single point] under setting [1] and 35.5 µM [falling, single point] under setting [2].

As to `Cn1c2ccccc2c2nnc(SCC(=O)NCc3ccoc3)nc21`, under setting [2], the AC50 was 10 µM [rising, partial curve].

On to `COCc1ccc(C(=O)N2CCCC(CCC(=O)NCc3ccccc3F)C2)o1` (stereo not drawn), for which, under setting [2], the AC50 was 12.6 µM [falling, single point].

In the case of `O=C(NCCC1=CCCCC1)c1cc(-c2ccncc2)nc2ccccc12`, the AC50 under setting [1] is 0.0251 µM [falling, partial curve, poor fit].

As to `COc1cc([N+](=O)[O-])ccc1NC(=O)CC1SC(=Nc2ccc(F)cc2)N(CCC2=CCCCC2)C1=O` (stereo not drawn), the AC50 is, setting by setting: under setting [1], 6.31 µM [rising, partial curve]; under setting [2], 5.01 µM [rising, partial curve].

In the case of `CCOC(=O)C1=C(C)N(c2ccc(C)c(C)c2)C(=O)/C1=C\c1ccco1`, the AC50 is 11.2 µM [rising, single point] under setting [1] and 12.6 µM [rising, single point] under setting [2].

In the case of `Cc1ccc(CN(C(=O)Cn2nnc3ccccc32)C(C(=O)NCc2ccco2)c2cccs2)cc1` (stereo not drawn), the AC50 is, setting by setting: under setting [1], 11.2 µM [rising, partial curve]; under setting [2], 11.2 µM [rising, single point].

With `COc1cc(OC)cc(N2C(=O)N(Cc3ccc(C(C)(C)C)cc3)c3ccccc3S2(=O)=O)c1`, the AC50 under setting [1] is 6.31 µM [falling, partial curve].

Regarding `O=C(CCC1CCCC1)N1CCN(S(=O)(=O)Cc2ccccc2)CC1`, the AC50 under setting [2] is 11.2 µM [rising, partial curve].

As for `c1coc(Cn2c(SCc3nc4ccccc4[nH]3)nnc2-c2cnccn2)c1`, the concentration at half-maximal activity (AC50) is, setting by setting: under setting [1], 35.5 µM [rising, single point]; under setting [2], 17.8 µM [rising, single point].
